Test results as given in patent US20250347705.
A weaker result is weaker than the reference pair of the same experiment.

Chains of the proteins cited; added tags and fusions are not shown. A line that says so, or that is headed by a name, gives the form on record, which may keep a tag or linker.
human chorionic gonadotropin (hCG), alpha/beta heterodimer (Homo sapiens), one chain, as listed by the source, chain 1 of 2: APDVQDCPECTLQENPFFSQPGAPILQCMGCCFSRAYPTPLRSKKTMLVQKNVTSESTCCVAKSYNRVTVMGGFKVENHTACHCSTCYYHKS

System: human chorionic gonadotropin (hCG), alpha/beta heterodimer (Homo sapiens)
Assay: EMSA
Conditions: potential but not strong binding; artificial urine, room temp; ELONA significant vs BSA beads (p=0.001); purified native protein; label: 5' biotin; single-stranded DNA; variant of R5_4 full-length

## CAAGGATCGGCTCAACTTAATATTGGAGGGATAGTGTTGG [R5_4 truncated]
  binding result: binds more weakly
